Drawing on patent publication US20150315275A1, this text covers binding for 23 molecules.

By UniProt entry, the sequences of proteins in these tests, tags left out. Where a name states a change or a piece, a line headed by the entry shows the natural chain unless it says otherwise.
UniProt Q7Z7D3: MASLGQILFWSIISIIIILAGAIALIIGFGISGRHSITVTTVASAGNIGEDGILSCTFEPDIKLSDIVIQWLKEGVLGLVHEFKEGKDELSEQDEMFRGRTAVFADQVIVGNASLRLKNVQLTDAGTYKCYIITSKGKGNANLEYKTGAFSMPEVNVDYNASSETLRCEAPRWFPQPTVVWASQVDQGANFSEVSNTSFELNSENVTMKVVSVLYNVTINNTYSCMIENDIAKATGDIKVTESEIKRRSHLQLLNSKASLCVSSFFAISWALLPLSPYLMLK
UniProt Q7TSP5: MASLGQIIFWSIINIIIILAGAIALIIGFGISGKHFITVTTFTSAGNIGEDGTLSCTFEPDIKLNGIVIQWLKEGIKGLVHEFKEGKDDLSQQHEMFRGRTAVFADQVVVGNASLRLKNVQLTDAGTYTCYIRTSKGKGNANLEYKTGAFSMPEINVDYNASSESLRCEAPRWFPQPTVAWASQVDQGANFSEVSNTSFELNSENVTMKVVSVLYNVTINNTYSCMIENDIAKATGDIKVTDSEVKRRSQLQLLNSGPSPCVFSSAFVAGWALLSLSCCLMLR

Where a chain is given by its changes, count along the chain named. Numbers in names are those of the source. No constants are given. Whether binding was seen depends on the method and setting. Some entries that bind do so weakly or less than the wild type.

T1: human B7-H4 (human) (UniProt Q7Z7D3)
T1 sequence: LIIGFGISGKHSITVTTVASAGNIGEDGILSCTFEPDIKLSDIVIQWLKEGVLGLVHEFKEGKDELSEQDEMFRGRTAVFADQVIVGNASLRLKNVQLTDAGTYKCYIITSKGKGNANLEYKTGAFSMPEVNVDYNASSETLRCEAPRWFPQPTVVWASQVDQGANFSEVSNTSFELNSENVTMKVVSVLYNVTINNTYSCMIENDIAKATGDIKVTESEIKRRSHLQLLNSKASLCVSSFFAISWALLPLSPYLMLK

B1: humanized 6H3 combination H1B L2C (antibody, V domains shown)
VH: EVQLVQSGAEVKKPGASVKVSCKASGYTFTDYYMNWVRQAPGQGLEWMGIINPYNGDTSYNQKFQGRVTLTVDKSTSTVYMELSSLRSEDTAVYYCARYPESTYWGQGTLVTVSS
VL: DIVMTQTPLSLPVTLGQPASISCRSSQSLVHINGNTYLHWYLQRPGQSPKVLIYKVSNRFSGVPDRFSGSGSGTDFTLKISRVEAEDVGVYFCSQSTHVPLTFGAGTKVEIK
B2: humanized 6H3 combination H1B L2B (antibody, V domains shown)
VH: B1 VH
VL: B1 VL with L42Q, K50R, A105Q
B3: humanized 6H3 combination H1A L1C (antibody, V domains shown)
VH: B1 VH with E1Q, N35H, N61A, L70M, V72R, K74T
VL: B1 VL with I2V, T7S, A105G
B4: humanized 6H3 combination H1B L1B (antibody, V domains shown)
VH: B1 VH
VL: B1 VL with I2V, T7S, L42Q, K50R, A105G
B5: humanized 6H3 combination H1B L1C (antibody, V domains shown)
VH: B1 VH
VL: B1 VL with I2V, T7S, A105G
B6: humanized 6H3 combination H1A L2C (antibody, V domains shown)
VH: B1 VH with E1Q, N35H, N61A, L70M, V72R, K74T
VL: B1 VL
B7: humanized 6H3 variant 4 (antibody, V domains shown)
VH: B1 VH with V11M, G44S, M48I, I50V, S59T, L70V, T76A, S77T, V79A
VL: B1 VL with I2V, T7S, L42Q, K50R, A105G
B8: humanized 6H3 variant 2 (antibody, V domains shown)
VH: B1 VH with M48I, Q65K, V79A
VL: B1 VL with I2V, T7S, L42Q, K50R, A105G
B9: humanized 6H3 variant 14 (antibody, V domains shown)
VH: B1 VH with V11M, G44S, M48I, I50V, S59T, L70V, T76A, S77T, V79A
VL: B1 VL
B10: humanized 6H3 variant 6 (antibody, V domains shown)
VH: B1 VH with V11M, G44S, I50V, S59T, L70V, T71A, T76A, S77T, V79A
VL: B1 VL with I2V, T7S, A105G
B11: humanized 6H3 variant 7 (antibody, V domains shown)
VH: B1 VH with V11M, G44S, M48I, I50V, S59T, L70V, T76A, S77T, V79A
VL: B1 VL with I2V, T7S, A105G
B12: humanized 6H3 variant 3 (antibody, V domains shown)
VH: B1 VH with V11M, G44S, I50V, S59T, L70V, T71A, T76A, S77T, V79A
VL: B1 VL with I2V, T7S, L42Q, K50R, A105G
B13: humanized 6H3 variant 12 (antibody, V domains shown)
VH: B1 VH with M48I, Q65K, V79A
VL: B1 VL
B14: humanized 6H3 variant 10 (antibody, V domains shown)
VH: B1 VH with V11M, G44S, I50V, S59T, L70V, T71A, T76A, S77T, V79A
VL: B1 VL with L42Q, K50R, A105Q
B15: humanized 6H3 variant 11 (antibody, V domains shown)
VH: B1 VH with V11M, G44S, M48I, I50V, S59T, L70V, T76A, S77T, V79A
VL: B1 VL with L42Q, K50R, A105Q
B16: humanized 6H3 variant 9 (antibody, V domains shown)
VH: B1 VH with M48I, Q65K, V79A
VL: B1 VL with L42Q, K50R, A105Q
B17: humanized 6H3 variant 13 (antibody, V domains shown)
VH: B1 VH with V11M, G44S, I50V, S59T, L70V, T71A, T76A, S77T, V79A
VL: B1 VL
B18: humanized 6H3 variant 5 (antibody, V domains shown)
VH: B1 VH with M48I, Q65K, V79A
VL: B1 VL with I2V, T7S, A105G
B19: anti-human B7-H4 antibody 2D1 (antibody, V domains shown)
VH: EVQLVESGGGLVKPGGSLKLSCAASGFTFNSHGMSWVRQTPEKRLDWVATISDGGTYTYYPVNVKGRFTISRDNAKNNLYLQMSHLKSEDTAMYYCARDGGGGAYWGQGTLVTVSA
VL: DVVMTQTPLSLPVSLGDQASISCRSSHSLVHSNGNTYLHWYLQKPGQSPNLLIYIVSNRFSGVPDRFSGSGSGTDFTLKISRVEAEDLGVYFCSQSTHVPPTFGAGTKLELK
B20: anti-human B7-H4 antibody 2H9 (antibody, V domains shown)
VH: EVQLVESGGNLVKPGGSLKLSCAASGFTFSNSAMSWVRQTPEKRLEWVATISDGGRYTYYPDNVKGRFTISRDNAKNNLYLQMSHLKSEDTALYYCARDRPHWYFDVWGTGATVTVSS
VL: DIVLTQSPASLAVSLGQRATISCRASESIDNYGISFMHWYQQKPGQPPKLLIYRASNLESGIPARFSGSGSRTDFTLTINPVETDDVATYFCQQSDEGRTFGGGTKLEIK
B21: humanized 6H3 variant 8 (antibody, V domains shown)
VH: B1 VH with E1Q, N35H, N61A, L70M, V72R, K74T
VL: B1 VL with L42Q, K50R, A105Q
B22: humanized 6H3 variant 1 (antibody, V domains shown)
VH: B1 VH with E1Q, N35H, N61A, L70M, V72R, K74T
VL: B1 VL with I2V, T7S, L42Q, K50R, A105G
B23: 2E11 (antibody, V domains shown)
VH: EVKLVESEGGLVQPGSSMKLSCTASGFKFTDYYMAWVRQVPEKGLEWVANINYDGSSTYYLDSLKSRFIISRDNAKNILYLQMNSLKSEDTATYYCARKGYFDYWGQGTTLTVSS
VL: DIVMSQSPSSLAVSVGEKVTVSCKSSQSLLYSTNQRTYLAWFQQKPGQSPKLLIYWASTRESGVPDRFTGSGSGTDFTLTISSVKAEDLAVYYCQQYYNYPLTFGTGTKLELK

The target in the first assay is T1, human B7-H4 (human). Description: assay not described.
As for B1, the binding entry is reported as “binds”.

With B2, the binding entry is reported as “binds”.

On to B3, for which the binding result is recorded as “binds”.

Turning to B4, the binding entry is given as “binds”.

For the molecule B5, the binding result was “binds”.

As for B6, the binding result was “binds”.

In a further assay the target is B7-H4-Ig fusion protein (human). Description: competition ELISA on B7-H4-Ig. (ELISA stands for enzyme-linked immunosorbent assay.)
As for B7, the binding entry is reported as “binds”.

Turning to B8, the binding entry is recorded as “binds”.

Turning to B9, the binding result was “binds”.

With B10, the binding result was “binds”.

As for B11, the binding entry is on record as “binds”.

Consider B12, for which the binding entry is on record as “binds”.

As for B13, the binding entry is listed as “binds”.

On to B14, for which the binding result is recorded as “binds”.

In the case of B15, the binding entry is listed as “binds”.

For the molecule B16, the binding result is on record as “binds”.

As to B17, the binding result is listed as “binds”.

B18: the binding entry is on record as “binds”.

A further assay has as its target B7-H4 ECD fusion protein (column 'ECD' of Table 4) (human) (UniProt Q7Z7D3). In words: ELISA, fusion protein coated; Table 4, ECD.
With B19, the binding result was “binds”.

Consider B20, for which the binding entry is given as “binds”.

The next assay concerns the target B7-H4ECD his-tagged protein (Sinobiologics) (human) (UniProt Q7Z7D3). In words: ELISA, B7-H4ECD his-tagged protein coated.
As for B7, the binding result was “binds”.

Take B8: the binding result is recorded as “binds”.

For the molecule B9, the binding result is “binds”.

As to B10, the binding entry was “binds”.

With B11, the binding entry is “binds”.

As for B12, the binding entry was “binds”.

In the case of B13, the binding result was “binds”.

For the molecule B14, the binding entry was “binds”.

Consider B15, for which the binding result was “binds”.

Take B16: the binding result is “binds”.

With B17, the binding result was “binds”.

With B18, the binding result was “binds”.

Another assay deals with mouse B7-H4ECD mIgG2a Fc fusion protein (mouse) (UniProt Q7TSP5). Description: ELISA, mouse B7-H4ECD mIgG2a Fc fusion coated.
Regarding B7, the binding result was “binds”.

For the molecule B8, the binding entry is listed as “binds”.

On to B9, for which the binding result is recorded as “binds”.

On to B21, for which the binding entry is given as “binds”.

With B10, the binding result is “binds”.

For the molecule B11, the binding result is “binds”.

In the case of B12, the binding entry was “binds”.

In the case of B13, the binding result was “binds”.

B14: the binding result was “binds”.

In the case of B15, the binding result was “binds”.

For B16, the binding entry is recorded as “binds”.

On to B22, for which the binding result is recorded as “binds”.

As for B17, the binding result was “binds”.

Regarding B18, the binding entry was “binds”.

A further assay concerns the target B7-H4-Ig fusion protein (human). Description: non-competitive ELISA (earlier example), recalled here; target as printed in this sentence.
For the molecule B7, the binding entry was “binds”.

Regarding B8, the binding result is recorded as “binds”.

B9: the binding result was “binds”.

Consider B10, for which the binding result is listed as “binds”.

In the case of B11, the binding entry is given as “binds”.

As to B12, the binding result was “binds”.

For the molecule B13, the binding result is given as “binds”.

Turning to B14, the binding result is on record as “binds”.

In the case of B15, the binding entry is “binds”.

B16: the binding entry was “binds”.

As for B17, the binding result is on record as “binds”.

Consider B18, for which the binding entry is reported as “binds”.

A further assay shares this target. Description: ELISA, B7-H4 Ig coated on the plate, conditioned medium of the hybridoma, HRP goat anti-mouse.
For B19, the binding result is “binds”.

For B20, the binding entry is reported as “binds”.

B23: the binding result was “binds”.

The next assay deals with B7-H4 fusion protein Variant 4: ECD-hIgG4 (human) (UniProt Q7Z7D3). Description: ELISA, B7-H4 Fc fusion protein immobilized at 1 µg/ml, mouse antibody titrated, anti-mouse Ig HRP.
Turning to B19, the binding entry is recorded as “binds”.

As to B20, the binding result is on record as “binds”.
